From publication PMC13484441
Results are given in words; binding and its absence hold for the method and conditions named. Binding seen in cells or lysates may run through a third protein. Here binding means that the protein was enriched with, or labelled near, the bait; the list need not be complete. Where a sequence is shown, tags or fusion partners need not be part of it.

T1: U2AF1-3XFLAG (endogenously tagged U2AF1) (human (endogenous in HBEC)) (UniProt Q01081)
T1 sequence: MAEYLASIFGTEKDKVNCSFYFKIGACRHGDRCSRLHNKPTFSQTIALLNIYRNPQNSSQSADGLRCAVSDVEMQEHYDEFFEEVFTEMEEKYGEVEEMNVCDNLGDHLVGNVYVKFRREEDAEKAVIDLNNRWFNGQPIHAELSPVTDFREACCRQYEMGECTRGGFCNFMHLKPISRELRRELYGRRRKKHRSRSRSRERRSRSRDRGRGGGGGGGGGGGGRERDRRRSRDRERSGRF

T2: U2AF1-3XFLAG (endogenously tagged U2AF1) (human (endogenous in HBEC)), Q01081
T2 chain: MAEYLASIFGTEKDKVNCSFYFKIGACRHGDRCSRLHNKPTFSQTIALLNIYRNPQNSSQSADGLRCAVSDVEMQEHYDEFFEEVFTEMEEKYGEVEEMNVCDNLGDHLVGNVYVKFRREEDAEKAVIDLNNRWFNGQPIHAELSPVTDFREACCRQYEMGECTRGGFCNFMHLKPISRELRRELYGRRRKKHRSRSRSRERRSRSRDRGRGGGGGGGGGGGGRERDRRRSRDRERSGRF


Assays:
[1] = target: T1, U2AF1-3XFLAG (endogenously tagged U2AF1) (human (endogenous in HBEC)); assay: affinity purification with mass spectrometry; anti-FLAG magnetic beads incubated with HBEC nuclear extract of U2AF1-3XFLAG cells overnight at 4°C, washed three times with nuclear lysis buffer, on-bead digestion, TMTpro LC-MS/MS; control: parental HBEC line without the tag; n = 3 replicates
[2] = target: T2, U2AF1-3XFLAG (endogenously tagged …); assay: as above; details: remark: other sources report otherwise

Row | binding [1] | binding [2] | Binder
1 | binds | – | DDX42 (protein, UniProt Q86XP3 1-938) MNWNKGGPGTKRGFGFGGFAISAGKKEEPKLPQQSHSAFGATSSSSGFGKSAPPQLPSFYKIGSKRANFDEENAYFEDEEEDSSNVDLPYIPAENSPTRQQFHSKPVDSDSDDDPLEAFMAEVEDQAARDMKRLEEKDKERKNVKGIRDDIEEEDDQEAYFRYMAENPTAGVVQEEEEDNLEYDSDGNPIAPTKKIIDPLPPIDHSEIDYPPFEKNFYNEHEEITNLTPQQLIDLRHKLNLRVSGAAPPRPGSSFAHFGFDEQLMHQIRKSEYTQPTPIQCQGVPVALSGRDMIGIAKTGSGKTAAFIWPMLIHIMDQKELEPGDGPIAVIVCPTRELCQQIHAECKRFGKAYNLRSVAVYGGGSMWEQAKALQEGAEIVVCTPGRLIDHVKKKATNLQRVSYLVFDEADRMFDMGFEYQVRSIASHVRPDRQTLLFSATFRKKIEKLARDILIDPIRVVQGDIGEANEDVTQIVEILHSGPSKWNWLTRRLVEFTSSGSVLLFVTKKANAEELANNLKQEGHNLGLLHGDMDQSERNKVISDFKKKDIPVLVATDVAARGLDIPSIKTVINYDVARDIDTHTHRIGRTGRAGEKGVAYTLLTPKDSNFAGDLVRNLEGANQHVSKELLDLAMQNAWFRKSRFKGGKGKKLNIGGGGLGYRERPGLGSENMDRGNNNVMSNYEAYKPSTGAMGDRLTAMKAAFQSQYKSHFVAASLSNQKAGSSAAGASGWTSAGSLNSVPTNSAQQGHNSPDSPVTSAAKGIPGFGNTGNISGAPVTYPSAGAQGVNNTASGNNSREGTGGSNGKRERYTENRGSSRHSHGETGNRHSDSPRHGDGGRHGDGYRHPESSSRHTDGHRHGENRHGGSAGRHGENRGANDGRNGESRKEAFNRESKMEPKMEPKVDSSKMDKVDSKTDKTADGFAVPEPPKRKKSRWDS
2 | – | binds | U2AF2, P26368 1-475 (protein) MSDFDEFERQLNENKQERDKENRHRKRSHSRSRSRDRKRRSRSRDRRNRDQRSASRDRRRRSKPLTRGAKEEHGGLIRSPRHEKKKKVRKYWDVPPPGFEHITPMQYKAMQAAGQIPATALLPTMTPDGLAVTPTPVPVVGSQMTRQARRLYVGNIPFGITEEAMMDFFNAQMRLGGLTQAPGNPVLAVQINQDKNFAFLEFRSVDETTQAMAFDGIIFQGQSLKIRRPHDYQPLPGMSENPSVYVPGVVSTVVPDSAHKLFIGGLPNYLNDDQVKELLTSFGPLKAFNLVKDSATGLSKGYAFCEYVDINVTDQAIAGLNGMQLGDKKLLVQRASVGAKNATLVSPPSTINQTPVTLQVPGLMSSQVQMGGHPTEVLCLMNMVLPEELLDDEEYEEIVEDVRDECSKYGLVKSIEIPRPVDGVEVPGCGKIFVEFTSVFDCQKAMQGLTGRKFANRVVVTKYCDPDSYHRRDFW
